# Primary screen of a compound library

Amino acid sequences for entries named in this document (tags omitted).
UniProt E9BF75, entry or part of it: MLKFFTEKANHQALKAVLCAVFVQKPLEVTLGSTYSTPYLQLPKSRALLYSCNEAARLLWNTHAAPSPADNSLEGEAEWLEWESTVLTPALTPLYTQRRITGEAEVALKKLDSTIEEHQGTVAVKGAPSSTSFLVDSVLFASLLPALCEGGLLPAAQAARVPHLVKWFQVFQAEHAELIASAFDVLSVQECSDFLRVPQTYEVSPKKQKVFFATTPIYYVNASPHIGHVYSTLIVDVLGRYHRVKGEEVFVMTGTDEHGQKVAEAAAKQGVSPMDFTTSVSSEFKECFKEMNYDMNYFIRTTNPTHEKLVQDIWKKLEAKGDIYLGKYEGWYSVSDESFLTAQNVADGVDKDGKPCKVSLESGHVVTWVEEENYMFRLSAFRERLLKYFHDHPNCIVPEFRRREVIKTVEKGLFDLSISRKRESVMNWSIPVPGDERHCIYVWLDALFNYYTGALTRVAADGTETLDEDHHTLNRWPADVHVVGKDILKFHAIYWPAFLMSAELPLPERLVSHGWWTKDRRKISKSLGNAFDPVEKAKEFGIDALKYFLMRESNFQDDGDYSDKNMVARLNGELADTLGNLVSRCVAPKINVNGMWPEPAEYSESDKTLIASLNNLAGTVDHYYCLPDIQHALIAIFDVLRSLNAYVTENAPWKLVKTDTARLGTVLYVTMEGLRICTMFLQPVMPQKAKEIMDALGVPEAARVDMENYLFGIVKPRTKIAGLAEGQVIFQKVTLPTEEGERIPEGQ

Measurements from “University of Dundee, Small-Polar-MMV Screening Library” (2021), ChEMBL document CHEMBL3988442.

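Primary screen of methionyl-tRNA synthetase; the read-out is not stated. Target: Methionyl-tRNA synthetase (putative), Leishmania donovani (UniProt E9BF75). The test concentration is not given. Values are per cent inhibition. Size under these conditions: about 68,000 compounds, about 24 of them at 50% or above in at least one test.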

Results are percentages, as filed.
The record does not define 0% and 100%; most values in the screen are far below 50% and negative numbers occur (in some assays of this library far below -100).
The compounds are a random part of those screened.

Compound,Inhibition
O=C1C(Sc2nnnn2C2CC2)CCN1c1ccccc1F (centres undefined),14.73
O=C1CCCCCN1Cc1nc(C2(c3ccc(F)cc3)CCOC2)no1 (centres undefined),2.521
CCN1CC2(CC1=O)CN(Cc1cnn(C)c1)CCN(C(C)=O)C2 (centres undefined),16.19
Cc1ncnc2c1CCN(CC(=O)N(C)C)CC2,20.26
CC(C)CC1SCC(=O)Nc2c1cnn2-c1ccc(F)cc1 (centres undefined),12.86
COc1ncc(NC(=O)Nc2cc(C)ccc2OC)cn1,10.78
O=C1Nc2ccccc2NC12CCN(Cc1nnc(C3CC3)o1)CC2,8.042
CS(=O)(=O)NCC1CCCCN1C(=O)c1cccc(C(F)(F)F)c1 (centres undefined),15.36
O=C1CCNc2ccc(F)cc2CN1Cc1ccco1,6.849
O=C(Nc1ccccc1F)C1=NN(c2ccccc2)C(=O)CN1,7.606
Cc1ncc(C(=O)N2CC(C(=O)N3CCOCC3)C2)c(C)n1,11.56
COc1cc(NC(=O)c2cscn2)ncn1,11.54
O=C(c1cccc(CO)n1)N1CCCC1c1nc2cc(F)ccc2[nH]1 (centres undefined),0.8499
Cc1noc(CN(C)CC2(O)CCCN(CCC3CCCCC3)C2=O)n1 (centres undefined),17.01
Cn1cc(C2CCCN2C(=O)c2cnc(C3CC3)s2)cn1 (centres undefined),-10.03
Cn1c(CCCNC(=O)Nc2cn[nH]c2)nc2ccccc21,9.581
CCN1CCc2[nH]cnc2C12CCN(c1ccc(Cl)cn1)CC2,11.02
CCCN1CCC(CC(=O)N[C@H](C(=O)O)c2cccc(F)c2F)CC1,13.19
CSc1[nH]nc(NC(=O)c2cccnc2)c1C#N,17.2
CN(C)C(=O)N1CCC2(CCCN(Cc3cnn(C)c3)C2)C1 (centres undefined),4.377
Cc1nc(-c2ccc(Cl)cc2)n(CC(=O)NC(C)C)c(=O)c1CCO,16.53
O=C1C(Sc2nc(=O)ccn2C2CC2)CCN1c1ccccc1F (centres undefined),6.407
c1ccc2sc(CN3CCOC(Cn4cncn4)C3)nc2c1 (centres undefined),7.19
Cc1nn(C)cc1CN1C[C@@H]2CC[C@H](C1)N(Cc1c(C)noc1C)C2=O,-3.371
COc1cccc(N2CCN(C(=O)C(C)Oc3ccccc3)CC2=O)c1 (centres undefined),1.044
CC(C)c1cc(C2CCCN2C(=O)CN2C(=O)CCNC2=O)no1 (centres undefined),18.38
CN(C)Cc1ccc(CNC(=O)NCC2(C)CCCS2)cc1 (centres undefined),10.42
O=C(c1ccco1)N1CCOCC2(C1)CN(c1ccoc1)C(=O)CO2 (centres undefined),9.589
Cc1csc(CN(C)c2cc(C)nc3c(C)c(C)nn23)n1,0
CC(C)(C)C(=O)N1CCC(n2nc(-c3ccco3)ccc2=O)CC1,16.15
Cc1ccc(NCc2cnc3n2CCN(c2ncccn2)CC3)nn1,15.23
Cn1cc(C(=O)Nc2cccc(Oc3ccncc3)c2)ccc1=O,6.767
CC(C)c1ncc2c(n1)CN(c1ncnc3[nH]ccc13)CC2,16.52
CCc1nccn1C1CCCN(C(=O)c2ccnc(N(C)C)c2)C1 (centres undefined),9.922
COc1ccc(C(C)n2ccnc2-c2cc3n(n2)CCCNC3)cc1F (centres undefined),12.42
CC(C)CNc1nnc(SC(C(=O)NCc2cccnc2)C(C)C)s1 (centres undefined),11.17
Cc1ccc(C(=O)N2CCC(Oc3ccc(F)cc3F)CC2)c(=O)[nH]1,6.122
CCCOc1ccccc1NCC(=O)Nc1ccc(CC)cc1,5.362
Cn1cc(CCCN2CCN(C(=O)c3cccc(O)c3)CC2)cn1,15.53
Cc1ccc(-c2nc(CNCC3CN(C)CCO3)co2)c(C)c1 (centres undefined),20.56
CC(C)(O)c1cn(C2CCN(c3ncccc3Cl)CC2)nn1,3.559
CNS(=O)(=O)c1ccc(CN2CCCN(CC(C)C)CC2)cc1,8.078
CC[C@H]1CN(S(=O)(=O)c2ccc(OC)cc2)CC[C@H]1CC(=O)O,-9.341
CCN(C(C)=O)C(c1ccc(Cl)cc1)c1ccccn1 (centres undefined),8.732
COCCCNC(=O)c1ccccc1-n1cc(CN(C)C)cn1,21.22
O=C(CCn1cnc2ccccc21)N1CCN2CCCCC2C1 (centres undefined),15.47
Cc1ncsc1CCC(=O)N1CCn2cccc2C1c1cccnc1 (centres undefined),12.58
O=C1CC(N(C(=O)c2ccc(F)c(C(F)(F)F)c2)C2CC2)C(=O)N1 (centres undefined),8.169
Cc1cc(C)nc(C2CCCN2C(=O)c2coc(C)n2)n1 (centres undefined),2.1
Cc1cc(C)n(CC2CN(c3nnc(C)c(C)c3C#N)CCO2)n1 (centres undefined),15.3
CS(=O)(=O)N[C@H]1CCO[C@]2(CCN(CC3CCOCC3)C2)C1,10.14
C[C@H]1C[C@H]2CN(S(=O)(=O)c3ccc(F)cc3)CC[C@@H]2O1,7.283
Cc1cnc(N2CC[C@@H]3O[C@@H](COCC(=O)N(C)C)CC[C@@H]32)nc1,14.97
Cc1noc(C(C)C)c1C(=O)NCCN1CCOCC1,17.61
CCN(C(c1cccnc1)c1cc(C)cc(C)c1)S(C)(=O)=O (centres undefined),6.596
Cc1nc(-c2cc(C(=O)NC(C)(C(=O)O)C(C)C)co2)cs1 (centres undefined),16.4
O=C(NC1CCCN(c2ncccn2)C1)c1cn2ccccc2n1 (centres undefined),13.64
Cc1ccc(N(CCC#N)C(=O)CCc2cccnc2)cc1C,21.32
CC(C)C(=O)N1CCC(C)(c2cc(O)[nH]n2)CC1,12.66
c1ccc2oc(N3CCC(c4nncn4C4CC4)CC3)nc2c1,10.45
Cc1ccccc1-c1cc(NC(=O)Cn2ccccc2=O)n(C)n1,11.88
O=C(c1ccc[nH]1)N1CCN(C(c2ccccc2)C(F)(F)F)CC1 (centres undefined),15.38
CCC(=O)N1CCN(Cc2cnc(C)nc2)[C@H]2CS(=O)(=O)C[C@H]21,-0.2618
CC(=O)N1CCCC1c1nc(N(C)C)ncc1-c1ccccc1 (centres undefined),8.399
COCCNC(=O)CN1CC=C(n2c(C)nc(=O)c3ccccc32)CC1,19.81
CSCC(=O)NC(Cc1ccc(C)cc1)c1ccccn1 (centres undefined),21.99
O=C(NC1CCOCC1)C1CC(=O)N(Cc2ccccn2)C1 (centres undefined),5.222
Cc1cc(NC(=O)NC2CCCc3c2cnn3CCO)n(C)n1 (centres undefined),7.958
CC(C)OCCCN(Cc1cnn(C)c1)Cc1ccccn1,10.48
Cc1ccc(N(CC(=O)N2CCCCC2)C(=O)C2COCCO2)cc1 (centres undefined),8.303
OCC1(NCc2cccc(-n3cccn3)c2)CCOCC1,5.932
CN1CCCN(c2nccc(-c3cncnc3C3CCCCC3)n2)CC1,10.92
Cc1cccc(CN2CCC3(CC2)COC(COCC2CC2)C3)n1 (centres undefined),16.42
CCCc1nc(CN(CC)Cc2ccc(S(C)(=O)=O)cc2)no1,3.881
Cc1cnc(N2C[C@H]3C[C@H](C(=O)N(C)C)[C@@H](C2)O3)nc1,4.603
Cc1cc(CNC(=O)CC2CCN(C(C)C)CC2)n(C)n1,11.38
CC(C(=O)N1CCc2ccccc2C1)N(C)Cc1cscn1 (centres undefined),20.38
O=C1CSC(c2ccsc2)c2c(n(C3CCOCC3)[nH]c2=O)N1 (centres undefined),12.86
O=C(CCNC1(c2nccs2)CCCC1)N1CCOCC1,14.95
CCOc1ccc(-n2nc(C)c(CC(C)=O)c2C)cc1C(N)=O,13.1

For reference, 5 entries once more:

{"compound": "Cn1cc(C2CCCN2C(=O)c2cnc(C3CC3)s2)cn1", "stereo": "centres undefined", "Inhibition": -10.03}
{"compound": "CC(C)CC1SCC(=O)Nc2c1cnn2-c1ccc(F)cc1", "stereo": "centres undefined", "Inhibition": 12.86}
{"compound": "Cc1ccc(C(=O)N2CCC(Oc3ccc(F)cc3F)CC2)c(=O)[nH]1", "Inhibition": 6.122}
{"compound": "Cc1cnc(N2CC[C@@H]3O[C@@H](COCC(=O)N(C)C)CC[C@@H]32)nc1", "Inhibition": 14.97}
{"compound": "Cc1noc(CN(C)CC2(O)CCCN(CCC3CCCCC3)C2=O)n1", "stereo": "centres undefined", "Inhibition": 17.01}